In this test the target is mouse mNectin-4 protein (ACRO, NE4-M52H3) (mouse) (UniProt Q8R007). The test can be described thus: ELISA, coated antigen. On the technique in general: In an ELISA, binding on a coated surface is turned into a signal by an enzyme label.

Chains of the proteins cited; added tags and fusions are not shown. Residues count along the entry.
UniProt Q8R007, residues 31-347: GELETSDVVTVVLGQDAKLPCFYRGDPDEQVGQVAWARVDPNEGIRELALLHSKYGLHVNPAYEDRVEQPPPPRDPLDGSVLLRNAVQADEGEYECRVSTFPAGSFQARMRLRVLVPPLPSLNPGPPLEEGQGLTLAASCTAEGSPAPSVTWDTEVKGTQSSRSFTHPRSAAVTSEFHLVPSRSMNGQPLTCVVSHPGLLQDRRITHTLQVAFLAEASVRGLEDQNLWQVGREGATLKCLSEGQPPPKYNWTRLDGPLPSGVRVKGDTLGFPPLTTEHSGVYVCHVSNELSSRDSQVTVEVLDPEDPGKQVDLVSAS

Results are given in words; binding and its absence hold for the method and conditions named. Some results given as binding are weak or reduced against the parent protein; the word gives no strength.

B1: reference antibody ASG-22 (antibody, human IgG1, kappa, V domains shown)
VH: EVQLVESGGGLVQPGGSLRLSCAASGFTFSSYNMNWVRQAPGKGLEWVSYISSSSSTIYYADSVKGRFTISRDNAKNSLSLQMNSLRDEDTAVYYCARAYYYGMDVWGQGTLVTVSS
VL: DIQMTQSPSSVSASVGDRVTITCRASQGISGWLAWYQQKPGKAPKFLIYAASTLQSGVPSRFSGSGSGTDFTLTISSLQPEDFATYYCQQANSFPPTFGGGTKVEIKR
In the case of B1, the binding entry was “binds”.

The record behind these values is patent US20260144882A1, “ANTI-NECTIN-4 ANTIBODY DRUG CONJUGATE AND USE THEREOF” (Bio-Thera Solutions, Ltd., priority 2022, published 2026).
